Measured values: article PMC10876507, “Chelator impact: investigating the pharmacokinetic behavior of copper-64 labeled PD-L1 radioligands” (EJNMMI Radiopharmacy and Chemistry, 2024)

Test system: PC3 PD-L1 and PC3 mock cells
Test: In vitro cell uptake in PC3 PD-L1 and PC3 mock cells
Format: cell-based, human
Conditions: for plastic retention of [64Cu]Cu-16 relative to [64Cu]Cu-14: cell uptake assay
Procedure: Both the target-positive (PC3 PD-L1) and negative cells (PC3 mock) were seeded at ~60,000 cells per well two days prior to the experiment. At the time of experiment, cells were then incubated with the respective radioligand at or close to the KD (determined by saturation binding) in binding buffer. For each timepoint and radiotracer (30, 60, 120 and 240 min), a single plate was used (with triplicate measurements). Additional controls per plate included plastic retention, nonspecific binding [excess of unlabeled BMS-1166 (in DMSO, resulting in 0.03% v/v) for both PC3 PD-L1 and PC3 mock] and cells incubated with PBS only (protein control). Following incubation, cells were washed twice in ice-cold binding buffer, lysed in 500 μL of 0.1 M NaOH + 1% SDS and radioactivity was measured in a gamma counter (Perkin Elmer Wizard 1480) and decay corrected to a reference time (end of radiolabeling).
Protein content was determined for each timepoint and cell type by BCA assay.
Figure S27: Cell uptake (fmol/mg protein) of [64Cu]Cu-14&16 into either PC3 PD-L1 or PC3 mock cells. Uptake of both […]
effects model. Binding to PC3 mock cells is similar to that of PC3 PD-L1 and PC3 mock cells blocked with an excess of […]

| SMILES | plastic retention of [64Cu]Cu-16 relative to [64Cu]Cu-14 | plastic retention (cell uptake assay control wells) |
| --- | --- | --- |
| Cc1c(COc2cc(OCc3cncc(S(C)(=O)=O)c3)c(CN[C@@H](CS(=O)(=O)O)C(=O)NCCS(=O)(=O)O)cc2Br)cccc1-c1cccc(OCc2cn(CCCN3CCN(C(=O)[C@H](CS(=O)(=O)O)NC(=O)CC[C@H](C(=O)[O-])N4CCN(CC(=O)[O-])CCN(CC(=O)[O-])CC4)CC3)nn2)c1C.[64Cu+2] [[^64Cu]Cu-14] | 10 times | 0.03 % of tracer stock activity |
| Cc1c(COc2cc(OCc3cncc(S(C)(=O)=O)c3)c(CN[C@@H](CS(=O)(=O)O)C(=O)NCCS(=O)(=O)O)cc2Br)cccc1-c1cccc(OCc2cn(CCCN3CCN(C(=O)[C@H](CS(=O)(=O)O)NC(=O)CCCC(=O)NC45CNCCNCC(N)(CNCCNC4)CNCCNC5)CC3)nn2)c1C.[64Cu+2] [[^64Cu]Cu-16] | ~ 10 times |  |
